The target of this assay is T1, FLAG-ZNF395 (human) (UniProt Q9H8N7).
T1 sequence: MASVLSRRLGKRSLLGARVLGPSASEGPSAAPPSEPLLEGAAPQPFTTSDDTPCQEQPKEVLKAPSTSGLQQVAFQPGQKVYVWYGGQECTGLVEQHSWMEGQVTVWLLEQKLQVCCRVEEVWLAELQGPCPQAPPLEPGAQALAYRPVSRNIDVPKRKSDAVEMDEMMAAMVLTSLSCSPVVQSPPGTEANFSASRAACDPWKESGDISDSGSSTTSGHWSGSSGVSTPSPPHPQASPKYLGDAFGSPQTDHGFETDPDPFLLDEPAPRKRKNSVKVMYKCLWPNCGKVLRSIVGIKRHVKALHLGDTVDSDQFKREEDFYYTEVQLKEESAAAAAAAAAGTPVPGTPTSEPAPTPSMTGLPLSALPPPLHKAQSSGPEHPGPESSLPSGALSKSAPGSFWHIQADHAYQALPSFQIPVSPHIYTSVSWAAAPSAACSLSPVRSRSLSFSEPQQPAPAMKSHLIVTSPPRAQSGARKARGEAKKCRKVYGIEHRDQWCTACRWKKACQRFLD
The assay can be described thus: co-IP; C33A cells co-transfected with vectors for FLAG-ZNF395 and HA-IKKα or HA-IKKβ; total cell extracts; precipitation with M2-FLAG agarose, immunoblot with anti-HA and anti-FLAG antibody.

These are yes or no findings as the source states them, for the method shown. Binding seen in cells or lysates may run through a third protein. Some entries that bind do so weakly or less than the wild type. Where a sequence is shown, tags or fusion partners need not be part of it.

B1: HA-IKKβ (enzyme, UniProt O14920 1-756)
chain: MSWSPSLTTQTCGAWEMKERLGTGGFGNVIRWHNQETGEQIAIKQCRQELSPRNRERWCLEIQIMRRLTHPNVVAARDVPEGMQNLAPNDLPLLAMEYCQGGDLRKYLNQFENCCGLREGAILTLLSDIASALRYLHENRIIHRDLKPENIVLQQGEQRLIHKIIDLGYAKELDQGSLCTSFVGTLQYLAPELLEQQKYTVTVDYWSFGTLAFECITGFRPFLPNWQPVQWHSKVRQKSEVDIVVSEDLNGTVKFSSSLPYPNNLNSVLAERLEKWLQLMLMWHPRQRGTDPTYGPNGCFKALDDILNLKLVHILNMVTGTIHTYPVTEDESLQSLKARIQQDTGIPEEDQELLQEAGLALIPDKPATQCISDGKLNEGHTLDMDLVFLFDNSKITYETQISPRPQPESVSCILQEPKRNLAFFQLRKVWGQVWHSIQTLKEDCNRLQQGQRAAMMNLLRNNSCLSKMKNSMASMSQQLKAKLDFFKTSIQIDLEKYSEQTEFGITSDKLLLAWREMEQAVELCGRENEVKLLVERMMALQTDIVDLQRSPMGRKQGGTLDDLEEQARELYRRLREKPRDQRTEGDSQEMVRLLLQAIQSFEKKVRVIYTQLSKTVVCKQKALELLPKVEEVVSLMNEDEKTVVRLQEKRQKELWNLLKIACSKVRGPVSGSPDSMNASRLSQPGQLMSQPSTASNSLPEPAKKSEELVAEAHNLCTLLENAIQDTVREQDQSFTALDWSWLQTEEEEHSCLEQAS
With B1, the binding entry was “binds”.
